Source: PubChem BioAssay (EPA / NIEHS)
“And” between values parts separate entries of the source, which are not always exact repeats. Equal values may be shown once. The inconclusive results got no clear call from the source; some entries with a clear call stand among them for comparison. Where the call is inconclusive, the potency comes from a doubtful curve fit. The source holds several records for some structures; these can differ, active in one and inactive in another. The source made the active and inactive calls. How the source made its calls: active means hit-call score of the fitted dose curve at least 0.9, where 1 is the maximum; inconclusive means response in the unintended direction; inactive means score below 0.9.

By UniProt entry, the sequences of proteins in these tests, tags left out. Where a name states a change or a piece, a line headed by the entry shows the natural chain unless it says otherwise.
UniProt P19793: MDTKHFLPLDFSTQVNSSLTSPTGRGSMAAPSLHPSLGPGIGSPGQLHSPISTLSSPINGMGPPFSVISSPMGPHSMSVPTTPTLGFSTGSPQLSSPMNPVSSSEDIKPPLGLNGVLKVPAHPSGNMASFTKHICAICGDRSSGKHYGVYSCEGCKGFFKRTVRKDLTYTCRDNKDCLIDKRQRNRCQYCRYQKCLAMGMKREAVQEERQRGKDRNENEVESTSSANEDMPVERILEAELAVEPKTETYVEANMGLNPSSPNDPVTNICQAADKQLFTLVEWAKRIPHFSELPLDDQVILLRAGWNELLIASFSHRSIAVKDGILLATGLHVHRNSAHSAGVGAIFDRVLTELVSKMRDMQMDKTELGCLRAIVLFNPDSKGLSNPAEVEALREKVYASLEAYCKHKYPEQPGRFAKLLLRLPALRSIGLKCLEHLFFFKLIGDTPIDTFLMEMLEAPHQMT

Target: Retinoic acid receptor RXR-alpha (Homo sapiens) (UniProt P19793)
Assay: OT_NURR1_NURR1RXRa_1440: Odyssey Thera (OT) 24-hour HEK293T Protein Complementation Assay for Nurr1/retinoid X receptor (RXR) (AID 2283386)
Method: OT_NURR1_NURR1RXRa_1440 is a cell-based assay that uses HEK293T, a human kidney cell line, with measurements taken at 24 hours after chemical dosing in a 384-well plate.OT_NURR1_NURR1RXRa_1440 is one of one assay component(s) measured or calculated from the OT_NURR1_NURR1RXRa_1440 assay. It is designed to make measurements of protein fragment complementation, a form of binding reporter, as detected with fluorescence intensity signals by Protein-fragment Complementation technology.Data from the assay component OT_NURR1_NURR1RXRa_1440 was analyzed into 1 assay endpoint. This assay endpoint, OT_NURR1_NURR1RXRa_1440, was analyzed in the positive analysis fitting direction relative to DMSO as the negative control and baseline of activity. Using a type of binding reporter, measures of receptor for gain-of-signal activity can be used to understand the binding at the pathway-level as they relate to the gene RXRA. Furthermore, this assay endpoint can be referred to as a primary readout, because the performed assay has only produced 1 assay endpoint. To generalize the intended target to other relatable targets, this assay endpoint is annotated to the nuclear receptor intended target family, where the subfamily is non-steroidal.
Protein-fragment complementation assay, or PCA, is a method for the identification and quantification of protein-protein interactions. In the PCA, the proteins of interest ("bait" and "prey") are each covalently linked to fragments of a third protein (e.g. DHFR, which acts as a "reporter"). Interaction between the bait and the prey proteins brings the fragments of the reporter protein in close proximity to allow them to form a functional reporter protein whose activity can be measured.

Compound | AC50 | outcome
CSc1nc(NC2CC2)nc(NC(C)(C)C)n1 | inconclusive: 50 µM | –
OC1OC[C@@H](O)[C@H](O)[C@H]1O (stereo not given in full) | – | inactive
Cc1ccc(S(=O)(=O)O)c(C)c1 | inconclusive: 50 µM | –
C=CCc1ccc(O)c(OC)c1 | inconclusive: 50 µM | –
CCc1cccc(CC)c1N | inconclusive: 50 µM | inactive
CCCCCCCCCCCCC[N+](C)(C)Cc1ccccc1 | inconclusive: 26 µM | –
CCc1cc(Cc2cc(CC)cc(C(C)(C)C)c2O)c(O)c(C(C)(C)C)c1 | inconclusive: 7.14 µM | –
CCCCN(CCCC)CCCC | inconclusive: 50 µM | –
O=C(OCCOCCOC(=O)c1ccccc1)c1ccccc1 | inconclusive: 21.1 µM and inconclusive: 50 µM | –
C=CCOC(=O)c1ccc(C(=O)OCC=C)c(C(=O)OCC=C)c1 | inconclusive: 50 µM | –
CCCCCCCC1CCC(=O)O1 (stereo not given) | inconclusive: 24.7 µM and inconclusive: 50 µM | –
C=C(C)C(=O)OCCOC1CC2CC1C1C=CCC21 (stereo not given) | inconclusive: 53 µM | –
CCN=C1C=CC(=C(c2ccc(N(CC)CC)cc2)c2ccc(N(CC)CC)cc2)c2ccccc21 | inconclusive: 6.58 µM | –
Cc1ccc([N+](=O)[O-])cc1N | inconclusive: 50 µM | –
C#CCOC(=O)[C@@H](C)Oc1ccc(Oc2ncc(Cl)cc2F)cc1 | inconclusive: 1.59 µM | –
CN(C)Cc1cc(CN(C)C)c(O)c(CN(C)C)c1 | – | inactive
Nc1cccc2c(N)cccc12 | inconclusive: 7.78 µM | inactive
Cc1occc1C(=O)Nc1ccc(C(=O)N2CCC(F)(F)/C(=C\C(=O)N3CCC(N4CCCCC4)CC3)c3ccccc32)cc1 | active: 28.3 µM | –

Entries of single compounds, quoted from the list. Order of values: AC50 | outcome
CCc1cc(Cc2cc(CC)cc(C(C)(C)C)c2O)c(O)c(C(C)(C)C)c1 is listed with inconclusive: 7.14 µM | –
Cc1occc1C(=O)Nc1ccc(C(=O)N2CCC(F)(F)/C(=C\C(=O)N3CCC(N4CCCCC4)CC3)c3ccccc32)cc1 is listed with active: 28.3 µM | –

The results go on:

Compound | AC50 | outcome
Cn1cc[nH]c1=S | inconclusive: 50 µM | –
COCC(C)OCC(C)O (stereo not given) | inconclusive: 50 µM | inactive
CC(C)C[C@H]1C(=O)N2CCC[C@H]2[C@]2(O)O[C@](NC(=O)[C@@H]3C=C4c5cccc6[nH]c(Br)c(c56)C[C@H]4N(C)C3)(C(C)C)C(=O)N12 | inconclusive: 2.4 µM | –
CS(=O)(=O)c1ccc([C@@H](C[C@H]2CCC(=O)C2)C(=O)Nc2cnccn2)cc1Cl | inconclusive: 50 µM | –
Nc1ccc2cc(S(=O)(=O)O)cc(O)c2c1N=Nc1ccccc1C(F)(F)F | inconclusive: 50 µM | –
CCCC1CCC(=O)CC1 | – | inactive
COc1cc(S(=O)(=O)O)c(C)cc1N=Nc1c(O)ccc2cc(S(=O)(=O)O)ccc12 | active: 75.9 µM | –
CCCCCCCCC(CO)CCCCCC (stereo not given) | – | inactive
O=C1NC(=O)C2CC=CCC12 (stereo not given) | – | inactive
CCc1cc(C2=C(C(=O)O)N(c3ccccc3C(F)(F)F)S(=O)(=O)c3ccccc32)cc2c1OCO2 | inconclusive: 3.61 µM | –
OC[C@@H](O)[C@@H](O)[C@H](O)[C@H](O)CO | inconclusive: 50 µM | –
CCc1ccc(O)cc1 | – | inactive
CC1(C)CC(N=C=O)CC(C)(CN=C=O)C1 (stereo not given) | inconclusive: 83.7 µM | inactive
CCCCC(CC)COC(=O)CCCCC(=O)OCC(CC)CCCC (stereo not given) | inconclusive: 9.92 µM and inconclusive: 50 µM | –
CC1CC(O)CC(C)(C)C1 (stereo not given) | inconclusive: 50 µM | –
C=C1C[C@]23C[C@@]1(O)CC[C@H]2[C@@]12C=C[C@H](O)[C@@](C)(C(=O)O1)[C@H]2[C@@H]3C(=O)O | – | inactive
Cc1ccc(N(C)C)cc1 | inconclusive: 50 µM | inactive
